The source of these data is paper PMC7641770, “Novel polyadenylylation-dependent neutralization mechanism of the HEPN/MNT toxin/antitoxin system” (Nucleic Acids Research, 2020).

For the experiment, the target named is T1, HepT toxin (SO_3166) of Shewanella oneidensis, C-terminal His6 tag, unmodified (co-produced with an inactive MntA variant) (Shewanella oneidensis) (UniProt Q8ECH6).
T1 sequence: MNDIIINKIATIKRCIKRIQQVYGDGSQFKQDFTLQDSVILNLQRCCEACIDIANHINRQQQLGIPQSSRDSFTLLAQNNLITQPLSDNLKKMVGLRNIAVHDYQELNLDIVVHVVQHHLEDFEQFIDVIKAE
As to the kind of experiment: pull-down.

These are yes or no findings as the source states them, for the method shown. Binding seen in cells or lysates may run through a third protein. Some results given as binding are weak or reduced against the parent protein; the word gives no strength. Tags and fused reporters may be left off the sequences shown.

On to “MntA G27A,S28T (SO_3165) of Shewanella oneidensis, untagged (from UniProt Q8ECH7 1-139) (enzyme)”, for which the binding entry is given as “binds”.
